Experimental findings from article PMC7819943, “Rice protein-binding microarrays: a tool to detect cis-acting elements near promoter regions in rice” are described below.

Chains of the proteins cited; added tags and fusions are not shown.
UniProt Q0JBA9, entry or part of it: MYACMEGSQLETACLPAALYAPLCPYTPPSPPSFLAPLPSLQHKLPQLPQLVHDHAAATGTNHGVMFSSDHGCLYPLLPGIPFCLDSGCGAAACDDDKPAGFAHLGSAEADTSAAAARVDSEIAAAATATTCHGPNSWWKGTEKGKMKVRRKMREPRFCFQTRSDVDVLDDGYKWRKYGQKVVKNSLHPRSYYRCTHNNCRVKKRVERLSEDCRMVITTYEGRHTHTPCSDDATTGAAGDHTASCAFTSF

This is one part of the list.

The target of the assay is OsWRKY34 (Oryza sativa, UniProt Q0JBA9 1-250). Kind of assay: protein-binding microarray (RPBM); PBS, 2% BSA, 51.3 ng/ul salmon testes DNA, 50 uM zinc acetate, 200 nM TF, 25 C, 1 h; high values mean tight binding. Conditions: protein: recombinant; tags: N-terminal polyhistidine and DsRed monomer fusion (pET32a); label: CyDye5-dUTP incorporated in the synthesized complementary strand; 3' TTTTT single-stranded linker to array surface; dsDNA, one strand shown. In outline:
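Ni–NTA purification followed expression in E. coli BL21-CodonPlus of transcription factors fused N-terminally to a polyhistidine tag and DsRed. At 200 nM in PBS with 2% BSA, salmon testes DNA and 50 µM zinc acetate, the protein was incubated for 1 h at 25 °C with a custom Agilent array that had been primer-extended with Cy5-dUTP and blocked with 2% BSA. After washing, the array was read on an Axon 4000B scanner. The binding signal is per-feature fluorescence intensity in arbitrary units.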
“AGTGGGTGGTGGCGGGCGGCTAGAGTTTCGTACATATGCACGGAGTCACCTAGTGCAG”: the binding signal is 13900 fluorescence intensity (a.u.). Then “TCGAGGTGGGTTTAGTAGTGGCCTTGTGGGTTGGGCCAGTCGGAGTCACCTAGTGCAG”, with 12200 fluorescence intensity (a.u.); and “GGTGTTTCTCTGATTGAGGTCCTGCGCAGATCATCCTCTACGGAGTCACCTAGTGCAG”, with 9480 fluorescence intensity (a.u.). Consider “TAGGGTCCACTTGTCTCTCTCACAGAGTTTCTTGACTCTTCGGAGTCACCTAGTGCAG”, for which the binding signal is 9740 fluorescence intensity (a.u.). Then “TCCTCCGACTCGCCTCTTCCCACCAACTCCTTCCCCGATGCGGAGTCACCTAGTGCAG”, with 8180 fluorescence intensity (a.u.); and “CGGGCCCCACTTCCGTTCATTGCAAGTCGCTCCCAGCGCACGGAGTCACCTAGTGCAG”, with 8120 fluorescence intensity (a.u.). Then “TCTTCAGCAGCATTCAACAGGGACGAAAATCCTTCTGCACCGGAGTCACCTAGTGCAG”, with 8380 fluorescence intensity (a.u.).

In the case of “GACTCATGTTCTCTGATTATTTTGATTTGTTAATCCAGCTCGGAGTCACCTAGTGCAG”, the binding signal was 8210 fluorescence intensity (a.u.). With “AAAGGCTGCACGAGCCACTTGTATTACGTTGTCATTCCTTCGGAGTCACCTAGTGCAG”, the binding signal is 8400 fluorescence intensity (a.u.). For “GAGATGATCCGCGTCCCTAATTCTATCGTTTGCGTTGTCACGGAGTCACCTAGTGCAG”, the binding signal is 8850 fluorescence intensity (a.u.). Take “ATTGTGCATTCCCCTTGCTGCTCGCTCCTCTAGATACATGCGGAGTCACCTAGTGCAG”: the binding signal is 8720 fluorescence intensity (a.u.).

Turning to “ACCGGGCCAACAACACCACCACGACACGAATACTCTAAAACGGAGTCACCTAGTGCAG”, the binding signal is 9160 fluorescence intensity (a.u.).

Turning to “GCGGGGTTCGTGGTGTGTGCGTGTGCGTCTCTCTCTGTCTCGGAGTCACCTAGTGCAG”, the binding signal was 21100 fluorescence intensity (a.u.). Consider “TGGTTGTGGTGGTGGTGGTGGTGGTCACATCCGCTGCACTCGGAGTCACCTAGTGCAG”, for which the binding signal was 8280 fluorescence intensity (a.u.). Take “AGCGACAATGGGGTTGGGAGTGGATGGCGAGCTCGAGCTCCGGAGTCACCTAGTGCAG”: the binding signal was 11900 fluorescence intensity (a.u.).

Consider “TAATCCGCTGCCATCACCGGACGTTTTTTAAGCGGTTACACGGAGTCACCTAGTGCAG”, for which the binding signal is 8730 fluorescence intensity (a.u.).

Take “CTCACTTACCCTAGCATGTTAACACTTGTAGTATCGGCGCCGGAGTCACCTAGTGCAG”: the binding signal was 12700 fluorescence intensity (a.u.). Turning to “ATGGGTAATATGTCTCACCCTGCTTGGTTGGTTTCGCATTCGGAGTCACCTAGTGCAG”, the binding signal is 8030 fluorescence intensity (a.u.). For “ATCATCCTTATAGGCACACACAGTTCTCCTAGATCAGCACCGGAGTCACCTAGTGCAG” the value was 8540 fluorescence intensity (a.u.). With “GGGAAAAGCACCGAAAAGCGCGGCCTTTTTTTCTTCTTTTCGGAGTCACCTAGTGCAG”, the binding signal is 8540 fluorescence intensity (a.u.). For the sequence “CCTTGCTGGACTCGTCCTTATTTGTTATTCCCACGATGTTCGGAGTCACCTAGTGCAG”, the binding signal is 10600 fluorescence intensity (a.u.). As to “AGGCTTTGTTTTTTGTTTTTATTTGCTGTTTCTCTTCATCCGGAGTCACCTAGTGCAG”, the binding signal is 13000 fluorescence intensity (a.u.).

Regarding “GAAAAATCTTTCCAGTGGTAGTGTGTTGCTCTCGGCCTCGCGGAGTCACCTAGTGCAG”, the binding signal is 8320 fluorescence intensity (a.u.).

Regarding “TGCTGCCTGCCCCATGTCTTAATTTCTCTTTCTGCAGCTACGGAGTCACCTAGTGCAG”, the binding signal was 9490 fluorescence intensity (a.u.). For the sequence “TTTATTCCCGCCATCTCATTCTCACCTACCCAATTGTCTCCGGAGTCACCTAGTGCAG”, the binding signal was 8420 fluorescence intensity (a.u.). On to “TCACGTTTCGGCACCCCGAGTTATCCTTACCCCGGCCGCGCGGAGTCACCTAGTGCAG”, for which the binding signal is 9220 fluorescence intensity (a.u.). In the case of “TCCTCCTCCGTCCGGTTCGCGCCGCGCTCCCTTCGTTCGTCGGAGTCACCTAGTGCAG”, the binding signal was 10500 fluorescence intensity (a.u.). For “GTCTTGCCAGGCCTCAATATAGCCCTCTTTCCTACATCTTCGGAGTCACCTAGTGCAG” the value was 8040 fluorescence intensity (a.u.); for “GTGCCTAACAATCTGCTGCTTTTTACCCGCCAAGTATCTTCGGAGTCACCTAGTGCAG”, 8180 fluorescence intensity (a.u.); for “CCCAGCTGCCCACTGCTACCTCCGTTCCATAATAAGTTAACGGAGTCACCTAGTGCAG”, 8680 fluorescence intensity (a.u.).

With “GAATCCACGCGCTACAGACAACCGGAACCATGTCCATTCTCGGAGTCACCTAGTGCAG”, the binding signal was 8190 fluorescence intensity (a.u.). With “TCCGTTTTTGTGGTTTTCGATGGATTCCGTCGTCGCCGACCGGAGTCACCTAGTGCAG”, the binding signal is 9660 fluorescence intensity (a.u.).

As to “GGTCGTCGAGATCCTTATCCTCTTCGTGCTGACTCTATCGCGGAGTCACCTAGTGCAG”, the binding signal was 8280 fluorescence intensity (a.u.). For the sequence “ACTGATAGGACTGAGTCGTCTCTAGTCTCGATTGCTTTTCCGGAGTCACCTAGTGCAG”, the binding signal is 8250 fluorescence intensity (a.u.).

For “GCCACCGTTTCTCCCAGCGCGCCGCAGCCGCCGCCGCCGGCGGAGTCACCTAGTGCAG”, the binding signal is 11100 fluorescence intensity (a.u.). For “CTTGTTTGTTTAAACCTCTCCACCGCCGCCTCCTCCTTTCCGGAGTCACCTAGTGCAG” the value was 8260 fluorescence intensity (a.u.); for “TGGTGCTCTCCCATTGTTCTTGGGTTTGCTGGTGCTATTCCGGAGTCACCTAGTGCAG”, 8560 fluorescence intensity (a.u.).

In the case of “TTGTCTCTCCATGCATATTGGAAATTTGTGATATATATATCGGAGTCACCTAGTGCAG”, the binding signal was 9360 fluorescence intensity (a.u.). As to “TTGATTTCTCTGAGTTTGTGTTCTTGGCATCATCATCATTCGGAGTCACCTAGTGCAG”, the binding signal was 11400 fluorescence intensity (a.u.). Then “TCACTCAATCCCTTTCATACCCCTAAAATTTACCCGATCCCGGAGTCACCTAGTGCAG”, with 9060 fluorescence intensity (a.u.). As for “GGTACTATTTATTGCTTTGATTTTATTATTTTTTCTCTAGCGGAGTCACCTAGTGCAG”, the binding signal was 8030 fluorescence intensity (a.u.). Then “TTGATCTGGGCCTAAATTTCTATTGTATCACCCTCTTAAACGGAGTCACCTAGTGCAG”, with 10800 fluorescence intensity (a.u.).
